In paper PMC12040169 (PLOS Biology, 2025):
The list shows a part of the results.

Tested on: T1, CTL2-GFP (C. trachomatis L2/434/Bu, GFP-expressing)
T1 construct: L2/434/Bu, GFP-expressing
Design: species or system HeLa; Intracellular C. trachomatis growth in HeLa cells, bulk GFP fluorescence relative to DMSO
Settings: bulk GFP, single well; 28.5 h, 10 µM; inhibitor

Structure (SMILES) | % of control remaining [%]
CC(=O)N1CCc2nc(C)nc(N(C)Cc3cnn(C(C)C)c3)c2CC1 [CBK306968] | 136.223
CCN(CC)c1c(C)nc2ccc(C(=O)N(C)CCN(C)C)cn12 [CBK145950] | 100
O=C(Nc1ccncc1)c1cc(-c2ccncc2)nc2ccccc12 [CBK287787] | 125.645
O=C(N[C@H]1CCN2C(=O)N(c3ccc(Br)cc3)C(=O)[C@@H]2C1)c1cccnc1 [CBK289557] | 141.857
O=[N+]([O-])c1ccc(-c2csc(Nc3ccc4c(c3)OCO4)n2)cc1 [CBK262448B] | 94.0752
COc1ccc(OC)c2c1cc(C(=O)NC[C@H]1CC[C@H](C(=O)O)CC1)n2C [CBK286636] | 103.492
Cc1cc(/C=C(/C#N)c2ccc(C(=O)O)cc2)c(C)n1-c1ccc(S(N)(=O)=O)cc1 [CBK268896] | 88.5266
CN(C)C(CC(=O)Nc1cccc(Cl)c1Cl)C(=O)O (centres unmarked) [CBK266952] | 119.239
O=C(O)CSc1nnc(-c2ccncc2)n1-c1ccccc1 [CBK264426] | 112.9
COc1ccc(Br)c(C(CO)N(C)C(=O)CC#N)c1 (centres unmarked) [CBK304240] | 74.5174
Cc1cc(F)ccc1S(=O)(=O)N1CCC2(CC1)CNC(=O)C2 [CBK283354] | 121.56
c1nc(N2CCOCC2)c2cn[nH]c2n1 [CBK016811] | 128.835
CS(=O)(=O)Nc1ncc(-c2ccco2)cc1C(=O)NCCc1c[nH]c2ccccc12 [CBK076569] | 122.156
Cn1cc(CN2C[C@H]3CN(C(=O)C4CCC4)C[C@@]3(C(=O)O)C2)cc1C#N [CBK307105] | 105.821
CCOC(=O)c1c(C)oc2ccc(OCC(=O)c3ccc(Br)cc3)cc12 [CBK263841] | 100
CNC(=O)N1CC(=O)N(Cc2cccc(Cl)c2)C1=O [CBK001918] | 115.001
CC(C)(C)c1cnc(C(=O)NC2CCCN(c3ncccn3)C2)o1 (centres unmarked) [CBK305777] | 141.594
CNC(=O)CC1CCN(c2cc(C#N)ccc2C(F)(F)F)CC1 [CBK306450] | 64.8932
CS(=O)(=O)N(CC(=O)Nc1ccc(S(=O)(=O)N2CCCCC2)cc1)c1ccc2c(c1)OCO2 [CBK268189] | 102.082
CC(C(=O)N1CCC(c2cc3cccnc3[nH]2)CC1)N1CCCC1=O (centres unmarked) [CBK282705] | 105.888
OCc1ccccc1-c1cncc(NCC2CCOCC2)n1 [CBK037309] | 119.344
Cc1ccc(Oc2cc(-n3nc(C)c(C(N)=O)c3N)ncn2)cc1 [CBK099753] | 109.997
N=C1S/C(=C/c2ccc(-c3ccccc3C(=O)O)o2)C(=O)N1c1nccs1 [CBK077624] | 107.677
CC(=O)N/C(=C\c1ccccc1)C(=O)NC(C)C(=O)O (centres unmarked) [CBK261491] | 102.327
CS(=O)(=O)N[C@H]1C[C@H]2C(=O)Nc3ccc(-c4cccs4)cc3C(=O)N2C1 [CBK289359] | 123.186
Cc1ccc(CCC2CCN(C(=O)c3ccc(O)nc3)CC2)cc1 [CBK296724] | 109.577

Structure (SMILES) | % of control remaining [%]
COCC(=O)N1CCc2sccc2C1c1ccc(NCc2ccc(OC)cc2)cc1 (centres unmarked) [CBK286458] | 118.287
c1ccc(-n2nnnc2SCc2cccc(CSc3nnnn3-c3ccccc3)n2)cc1 [CBK263258] | 100
O=C(O)CCC(=O)Nc1ccccc1NC(=O)c1ccc(C(F)(F)F)cc1 [CBK265770] | 102.328
COc1ccccc1C1CCN(C(=O)c2ccc(C(C)(C)C)cc2)CC1 [CBK086469] | 144.11
C=CCC1(CC=C)CCN1C(=O)c1sc2ncn(C)c(=O)c2c1C [CBK282637] | 124.912
O=C(N[C@H]1CO[C@H]2[C@@H]1OC[C@@H]2n1cc(-c2ccccc2)nn1)N1CCOCC1 [CBK289503] | 128.152
COc1cc2nc3c4ccccc4n(CC(=O)O)c3nc2cc1OC [CBK263626] | 135.484
CN(C)CCCNC=C1C(=O)CC(C)(C)CC1=O [CBK262043] | 91.0025
Cc1cccnc1C(c1ccccc1)N(C)C(=O)C1CCN(C(=O)OCc2ccccc2)CC1 (centres unmarked) [CBK060522] | 100
CCOC(=O)Cn1c(CN2CCCCC2C)nc2c1c(=O)n(C)c(=O)n2C (centres unmarked) [CBK269382] | 123.961
Cc1cccc(Nc2nc3nonc3[nH]/c2=N\N=C/c2cn(Cc3ccc(Cl)cc3Cl)c3ccccc23)c1C [CBK262378] | 121.182
c1cncc(COc2nc3ccccc3nc2N2CCCC2)c1 [CBK115762] | 118.026
Cn1cc(-c2nc(C(=O)NC3CCCN(c4ncccn4)C3)cs2)cn1 (centres unmarked) [CBK305629] | 121.093
O=C(OCc1ccccc1)N1CCC(C(=O)N(CCc2ccccc2)Cc2ccccc2)CC1 [CBK171978] | 105.065
CC(=O)CSc1nc2c(c(=O)n(C)c(=O)n2C)n1CCCc1ccccc1 [CBK269581] | 135.475
COc1ccc(S(=O)(=O)Nc2ccc(C(=O)O)cc2)cc1OC [CBK034048] | 120.201
C/C(=N\Nc1cccc2cccnc12)C(C)(C)C [CBK021957] | 93.7256
CC(C)[C@@H](CO)Nc1nc(-c2cncnc2)cnc1N [CBK063735] | 198.98
COc1cccc(NC(=O)NC(=O)C2CCN(C(C)C)CC2)c1 [CBK034798] | 112.554
O=C(Nc1ccc2c(c1)nc1n2CCN(Cc2ccccc2)C1)NC1CCCCC1 [CBK267033] | 97.5371
Cc1ccc(-c2c[nH]c([C@@H]3COCCN3Cc3c[nH]cn3)n2)cc1 [CBK289315] | 171.068
CC(C)(C)c1ccc(O)c(NC(=S)NC(=O)c2ccccc2I)c1 [CBK264399] | 71.7222
CS(=O)(=O)N1CCc2cc(-c3csc(NCC(F)(F)F)n3)ccc21 [CBK305650] | 93.4645
O=C(Nc1cc(Oc2cccnc2)cc([N+](=O)[O-])c1)c1nn2c(C(F)(F)F)cc(-c3cccs3)nc2c1Br [CBK262535] | 100
Cc1c(O)ccc2c(COC(=O)C3(c4ccccc4)CCCC3)cc(=O)oc12 [CBK295622] | 130.944
O=C(NC(c1cccc([N+](=O)[O-])c1)c1cc(Cl)c2cccnc2c1O)c1cccnc1 (centres unmarked) [CBK263987] | 100

Structure (SMILES) | % of control remaining [%]
Cc1cc(C)nc(SCC(=O)Nc2cccc(C(=O)O)c2)n1 [CBK263214] | 111.867
COc1cc(-c2cncc(N3CCC(C(=O)O)CC3)n2)cc(OC)c1OC [CBK037973] | 104.56
COc1ccc2[nH]c3c(c2c1)CCNC31CCN(CCSc2ccccc2)C1 (centres unmarked) [CBK084541T] | 90.3528
CN(CC(=O)NCc1ccc(OCC(N)=O)cc1)C1CCCCC1 [CBK306331] | 153.009
CC(=O)NCc1cccc(-c2cc(C(=O)NCC3CN(Cc4ccccc4)CCO3)cnc2-c2ccc(Cl)cc2)c1 (centres unmarked) [CBK164416T] | 103.308
O=C(CN(c1cccc(Cl)c1)S(=O)(=O)c1ccccc1)Nc1cccc2cccnc12 [CBK263270] | 86.9757
Cc1ccc(-c2cnc(NC(=O)Cn3cccn3)n2C)cc1C [CBK281727] | 92.4662
Cn1c(N2CCCC(C(N)=O)C2)nc2ccccc21 (centres unmarked) [CBK282372] | 154.588
Cc1ccc(CN[C@@H]2COC[C@H]2Cc2cc(C)no2)cc1 [CBK283030] | 92.5869
COC(=O)c1ccc(Oc2nc(OC)cc(OC)n2)cc1 [CBK092221] | 118.303
C=CCN1CCC2(CC1)CN(C(C)=O)Cc1cc(C)ccc1O2 [CBK282693] | 118.51
COC(=O)c1c(NC(=O)CC2NCCNC2=O)sc(C)c1C (centres unmarked) [CBK269447] | 169.666
CCOc1ccc(-c2nc(CSc3n[nH]c(=O)n3Cc3ccccc3)cs2)cc1 [CBK296737] | 133.939
CCN(CC)C(=O)Cn1c(=O)n(CC)c2ncccc21 [CBK282347] | 133.715
Cc1[nH]c(=O)[nH]c(=S)c1C(=O)Nc1ccc2c(c1)OCO2 [CBK115519] | 117.255
COCCNC(=O)c1cc(-c2ccc(C)s2)nc2c1cnn2C(C)C [CBK305051] | 140.453
COc1ccc(-c2nnc(SCC(=O)Nc3ccccc3[N+](=O)[O-])n2C)cc1 [CBK265609] | 133.243
COc1cc(C(C)c2cc3c(cc2O)OCO3)cc(OC)c1OC (centres unmarked) [CBK200103] | 80.31
CC1=C[C@@H](CNS(=O)(=O)c2cccs2)[C@H](C(C)C)C[C@H]1CC(=O)O [CBK289210] | 115.109
O=C(O)c1cccnc1SC1CC(=O)N(c2cccc(Cl)c2Cl)C1=O (centres unmarked) [CBK269306] | 112.151
Nc1ncc(-c2ccc(C(=O)N3CCOCC3)cc2)nc1-c1ccc(Cl)s1 [CBK138510] | 122.104
CC1(C)CC(=O)c2sc(NC(=O)C3CC3)nc2C1 [CBK287329] | 117.558
COc1ccc(-c2ocnc2C(=O)NCCc2ccccc2F)cc1 [CBK283941] | 121.535
CN(C)CCCC(=O)Nc1ccc2c(ccn2Cc2ccccc2)c1 [CBK159740] | 101.531
CN1CCCc2c1oc1c(OCc3cccnc3)cccc1c2=O [CBK007904] | 100
